# In PubChem BioAssay AID504444 (National Center for Advancing Translational Sciences (NCATS), 2011):
# Out of some 360,000 compounds screened, about 7,500 (2.1%) were called active. Inconclusive results, whose numbers are uncertain, are shown with a selection of clear calls. Calls come from the whole dose curve; as a rule, active = well fitted inhibition curve with a large enough effect; inconclusive = small, poorly fitted or top-dose-only effect, or effect the other way; inactive = flat fitted curve, though single readings scatter. Potencies beside an inconclusive call are fits to weak or partial responses and may not hold up.
# Assay: Nrf2 qHTS screen for inhibitors; note: nearly all actives have a fitted effect of over 60% in size
# Conditions: A549 ARE-Fluc reporter, luciferase luminescence, 18-24 h; series mostly up to 46 µM
# Summary of the method: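 Quantitative HTS in A549 cells stably bearing an antioxidant response element-firefly luciferase construct. Inhibition of Nrf2-driven transcription was scored by luminescence after 18-24 h of compound exposure at 37 °C.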
# Potency is the fitted concentration of half-maximal effect.
row,Compound,Potency
1,Cc1ccc(-c2nnc(-c3ccc4c(c3)OCO4)o2)cc1,"inconclusive: 1.84 µM [activator, full curve]"
2,CCc1ccc2c(c1)c(=O)c(C(=O)c1ccccc1)cn2CC(=O)Nc1ccc(C)c(Cl)c1,inactive
3,CC(C)Cc1nnc(NC(=O)CCC(=O)N2CCN(Cc3ccc(Cl)cc3)CC2)s1,"inconclusive: 25.9 µM [falling, single point]"
4,CCCn1cc(SCC(=O)Nc2ccc3c(c2)OCO3)c2ccccc21,"inconclusive: 5.17 µM [falling, full curve, poor fit]"
5,CC(C)Nc1ccc(C(CC(N)=O)NC(=O)Cc2ccc(Br)cc2)cc1[N+](=O)[O-] (configuration not stated),"inconclusive: 6.51 µM [falling, partial curve]"
6,COCCn1c(SCc2ccc(Cl)cc2)nc2c1c(=O)[nH]c(=O)n2C,"inconclusive: 16.4 µM [falling, single point]"
7,Cc1cc(C)c2nc(C(F)(F)F)nc(N3CCN(C(=O)c4ccco4)CC3)c2c1,"inconclusive: 23.1 µM [falling, single point]"
8,COC(=O)c1sc(NC(=O)c2csc3c2CCCC3)nc1C,"inconclusive: 5.17 µM [activator, partial curve, poor fit]"
9,O=C(Cc1cccs1)Nc1ccc(N2CCOCC2)cc1,"inconclusive: 6.51 µM [activator, partial curve]"
10,COCc1cc(C)nc(OCC(=O)N/N=C/c2ccc(-c3cc([N+](=O)[O-])ccc3Cl)o2)c1C#N,inactive
11,O=C(COc1ccc(Cl)cc1Cl)NC(=O)NC1CCCC1,"inconclusive: 16.4 µM [activator, partial curve]"
12,CCOc1ccc(Cc2c(Cl)nc(SC)nc2N(C)C)cc1,active: 13 µM
13,Fc1ccc(Nc2c(-c3c[nH]c4ccccc34)nc3ccccn23)cc1,"inconclusive: 5.8 µM [activator, single point]"
14,Cc1ccc(C(=O)Nc2nnc(S(=O)(=O)N3CCCc4ccccc43)s2)cc1,inactive
15,COCCCNC(=O)C1CCN(C(=O)c2cc3sccc3n2Cc2ccc(Cl)cc2)CC1,"inconclusive: 29.1 µM [falling, single point]"
16,CCNc1nc(SC(C)C(=O)OC)nc(N(C)C)n1 (configuration not stated),"inconclusive: 2.91 µM [falling, partial curve, poor fit]"
17,O=C(N/N=C/c1ccc([N+](=O)[O-])o1)c1cn2ccc3ccccc3c2n1,inactive
18,CCS(=O)(=O)Nc1cccc(-c2nc3cccnc3s2)c1C,"inconclusive: 4.11 µM [activator, single point]"
19,C/C(=N\NC(=O)c1nnn(-c2nonc2N)c1CN(C)c1ccccc1)c1ccccc1O,active: 8.2 µM
20,O=C(Nc1ccc(OC(F)(F)F)cc1)C(NS(=O)(=O)c1cccc2nsnc12)c1ccccc1 (configuration not stated),"inconclusive: 29.1 µM [falling, single point]"
21,Cc1cc(C)cc(NC(=O)CCc2nc3sc4c(c3c(=O)[nH]2)CCCC4)c1,"inconclusive: 29.1 µM [falling, single point]"
22,Cc1ccccc1Cn1nnc(-c2ccc3c(c2)OCO3)n1,inactive
23,O=[N+]([O-])c1ccc(S(=O)(=O)CC(CN2CCOCC2)N2CCOCC2)cc1 (configuration not stated),"inconclusive: 20.6 µM [activator, single point]"

# 5 of the compounds above, as tab-separated lines:
row	Compound	Potency
1	Cc1ccc(-c2nnc(-c3ccc4c(c3)OCO4)o2)cc1	inconclusive: 1.84 µM [activator, full curve]
2	CCc1ccc2c(c1)c(=O)c(C(=O)c1ccccc1)cn2CC(=O)Nc1ccc(C)c(Cl)c1	inactive
3	CC(C)Cc1nnc(NC(=O)CCC(=O)N2CCN(Cc3ccc(Cl)cc3)CC2)s1	inconclusive: 25.9 µM [falling, single point]
4	CCCn1cc(SCC(=O)Nc2ccc3c(c2)OCO3)c2ccccc21	inconclusive: 5.17 µM [falling, full curve, poor fit]
5	CC(C)Nc1ccc(C(CC(N)=O)NC(=O)Cc2ccc(Br)cc2)cc1[N+](=O)[O-] (configuration not stated)	inconclusive: 6.51 µM [falling, partial curve]

# Going on with the list:

row,Compound,Potency
1,COc1ccccc1NS(=O)(=O)c1cc(NC(=O)Nc2ccc(Cl)cc2Cl)ccc1N1CCCCC1,"inconclusive: 23.1 µM [falling, single point]"
2,O=c1[nH]c2ccc(Cl)cc2c(-c2ccccc2)c1SC(=S)N1CCCCC1,"inconclusive: 16.4 µM [falling, single point]"
3,CCOCCCNC(=O)c1ccc2c(c1)ncn2C1CCCC1,"inconclusive: 29.1 µM [activator, single point]"
4,O=C(CSc1ncc2c(n1)-c1cc(Cl)ccc1N(Cc1ccccc1)S2(=O)=O)NCc1ccccc1,inactive
5,O=C1CSC2(C(=O)N(Cc3c(F)cccc3Cl)c3ccccc32)N1c1ccc(F)c(F)c1 (configuration not stated),"inconclusive: 29.1 µM [falling, single point]"
6,COc1ccccc1NC(=O)CCn1c(=S)oc2ccccc21,"inconclusive: 4.11 µM [falling, partial curve, poor fit]"
7,CC(=O)Oc1ccc(/C=C(\NC(=O)c2ccco2)C(=O)Nc2ccc(C(C)=O)cc2)cc1,"inconclusive: 29.1 µM [activator, single point]"
8,CCn1nnc(NC(=O)C(C)(c2ccccc2)c2ccccc2)n1,"inconclusive: 0.731 µM [activator, full curve, poor fit]"
9,CCOc1ccc(NC(=O)c2ncn(-c3ccccc3)n2)cc1,"inconclusive: 2.59 µM [activator, full curve]"
10,N#CC1=C(N)OC2=C(CC/C2=C\c2ccccc2Cl)C1c1ccccc1Cl (configuration not stated),"inconclusive: 8.2 µM [falling, partial curve]"
11,Cc1ccc(Cn2nnc3c(=O)[nH]c(C4CCCN(S(=O)(=O)c5ccccc5)C4)nc32)cc1 (configuration not stated),"inconclusive: 11.6 µM [falling, partial curve]"
12,CCOc1ccc2nc(NC(=O)Nc3cccs3)sc2c1,"inconclusive: 20.6 µM [activator, partial curve]"
13,Cc1cccc(S(=O)(=O)C(C#N)c2nc3ccccc3nc2N2CCOCC2)c1 (configuration not stated),"inconclusive: 25.9 µM [falling, partial curve, poor fit]"
14,Cc1ccc(-c2cc3ncc4c(n3n2)-c2ccccc2OC4)cc1,"inconclusive: 6.51 µM [activator, partial curve, poor fit]"
15,CS(=O)(=O)Nc1ccc(C(=O)Nc2ccc(S(=O)(=O)N3CCCCC3)cc2)cc1,"inconclusive: 10.3 µM [falling, partial curve]"
16,COc1ccc(C(=O)O/N=C(\N)c2ccccc2)c(OC)c1,"inconclusive: 2.31 µM [activator, partial curve]"
17,COc1ccccc1NS(=O)(=O)c1cccc(NC(=O)CCNC(=O)c2ccccc2OC)c1,"inconclusive: 29.1 µM [falling, single point]"
18,CCOc1ncccc1C(=O)Nc1ccc2c(c1)OCCO2,"inconclusive: 9.2 µM [activator, partial curve, poor fit]"
19,O=C(OCc1ccc(Cl)cc1Cl)c1ccncc1,"inconclusive: 6.51 µM [activator, single point]"
20,CN(C)c1cccc(C(=O)OCC(=O)Nc2nccs2)c1,"inconclusive: 25.9 µM [activator, single point]"
21,O=C1CC(N(C(=O)c2ccco2)c2ccc(F)cc2)C(=O)N1c1ccc(F)cc1 (configuration not stated),"inconclusive: 0.146 µM [falling, partial curve]"
22,CC1Sc2ccc(S(=O)(=O)CCC(=O)N3CCN(c4ccccc4)CC3)cc2NC1=O (configuration not stated),inactive
23,O=C(N/C(=C\c1ccc(-c2ccccc2)o1)C(=O)N1CCOCC1)c1ccccc1,"inconclusive: 16.4 µM [falling, partial curve, poor fit]"

row,Compound,Potency
1,CCCSc1nsc(SCCC)c1C#N,"inconclusive: 20.6 µM [activator, single point]"
2,O=C(N/N=C/c1cccs1)c1ccc(-n2cccc2)cc1,"inconclusive: 9.2 µM [activator, partial curve, poor fit]"
3,COc1ccc(NC(=O)c2ccco2)cc1S(=O)(=O)N1CCCCC1,inactive
4,CC1CCN(CC(CS(=O)(=O)c2ccc([N+](=O)[O-])cc2)N2CCC(C)CC2)CC1 (configuration not stated),active: 23.1 µM
5,Cc1ccc(N(Cc2ccc(C(=O)NC3CCCCC3)cc2)S(C)(=O)=O)cc1C,"inconclusive: 0.103 µM [falling, full curve]"
6,Cc1ccc2c(c1)CC1(CN2C)C(=O)OC(C)(C)OC1=O,inactive
7,Cc1ccc(-n2c(C)nc3c(cnn3-c3ccccc3C)c2=O)cc1F,inactive
8,FC(F)(F)c1nc(=S)c2ccccc2[nH]1,inactive
9,COc1ccc(-n2ccnc(SCC(=O)NCc3ccccc3Cl)c2=O)cc1,"inconclusive: 29.1 µM [falling, single point]"
10,CCc1ccc2oc(-c3ccc(NC(=O)c4ccc(OC)c(Br)c4)cc3)nc2c1,"inconclusive: 13 µM [activator, partial curve, poor fit]"
11,OCCNc1nc(NCCC2=CCCCC2)nc(N2CCOCC2)n1,"inconclusive: 16.4 µM [falling, single point]"
12,Cc1cc(C)nc(N2CCC(C(=O)NCc3ccco3)CC2)n1,inactive
13,O=C(NCc1cccc(F)c1)c1ccc(-n2cnc3cccnc32)cc1,inactive
14,CCOc1cc(C(=O)CSc2nnc(CNc3ccc(Cl)cc3)o2)ccc1NC(=O)CC,"inconclusive: 29.1 µM [falling, single point]"
15,Cc1ccc(S(=O)(=O)N2CCN(C(=O)/C=C/c3ccccc3)CC2)cc1C,inactive
16,Cc1ccccc1-c1cc(C(=O)Nc2nc3c(s2)CCCC3)c2ccccc2n1,inactive
17,COc1ccc(-c2cc(C(=O)NCC(C)C)no2)cc1,"inconclusive: 2.59 µM [activator, full curve]"
18,CCN(CC)S(=O)(=O)c1ccc(C)c(NC(=S)NNC(=O)C2CC2)c1,inactive
19,Cc1cc2c(cc(C(=O)NCc3cccnc3)n2Cc2ccc(Cl)cc2)o1,"inconclusive: 16.4 µM [falling, partial curve, poor fit]"
20,CCOc1ccc2nc(NC(=O)c3ccc(OCC4CCCO4)cc3)sc2c1 (configuration not stated),"inconclusive: 29.1 µM [falling, single point]"
21,O=C(CSc1nnc(COc2cccc3cccnc23)o1)N1CCc2ccccc21,"inconclusive: 2.31 µM [falling, partial curve, poor fit]"
